A short description of the assay: modulators of CD8 T cell-vesicle binding, confirmation, cherry-picked primary hits, two concentrations (AID 2810).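 As to all read-outs here: lower values mean blocking of vesicle binding.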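 As to percent response (vesicle binding): ratio of mean FL2 vesicle stain of CD8+ cells to that row's control.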 The note with it: 2C CD8+ T cell-vesicle binding, flow cytometry; for double positive events: CD8+/vesicle+ events. For orientation: In flow cytometry, cells or beads pass a laser one at a time.
Setting [1] is: at 15.4 µM, stronger effect = lower value.

The list shows a part of the results. Shown are side measurements of this screen, not its main read-out; they come without a call.

This passage reports double positive events and percent response (vesicle binding) results from PubChem BioAssay AID2810 (NMMLSC, 2010).

Turning to `CCOc1ccc(CNC(c2ccccc2)c2ccccc2)cc1`, the double positive events is 11.3% (at 7.7 µM) and 14.3% under setting [1]. Where the note is “at 7.7 µM”, this compound registered a percent response (vesicle binding) of 216%.

In the case of `CC(Sc1nc2ccccc2[nH]1)C(=O)NC1CCCCC1C` (configuration not stated), for the setting “at 7.7 µM”, the double positive events was found to be 26.2% and the percent response (vesicle binding) came to 192%. Besides, the double positive events under setting [1] is 3.9%.

On to `COc1ccc(S(=O)(=O)N2CCCCC2)cc1C(=O)N1CCCC1`, for which the double positive events by setting is: (at 7.7 µM) 9.1%; under setting [1], 37%. The same compound gave a percent response (vesicle binding) (at 7.7 µM) of 165%.

As to `Cc1ncc(CN2CCCC(C(=O)Nc3ccc(-c4cscn4)cc3)C2)cn1` (configuration not stated), the double positive events by setting is: (at 7.7 µM) 12.4%; under setting [1], 30.3%. Where the note is “at 7.7 µM”, this compound yielded a percent response (vesicle binding) of 221%.

`CC(COc1ccc(C(C)C)cc1)NC(=O)c1ccc(Br)o1` (configuration not stated): the double positive events reads like this: (at 7.7 µM) 28.7%; under setting [1], 21.1%. The percent response (vesicle binding) (at 7.7 µM) was found to be 278%.

Take `CC1CCN(S(=O)(=O)Cc2ccccc2Cl)CC1`: the double positive events was found to be 9.2% (at 7.7 µM) and 16.3% under setting [1]. The compound also had a percent response (vesicle binding) (at 7.7 µM) of 336%.

For the compound `O=C(Nc1ccc(OC(F)(F)F)cc1)C1=NCCN1`, where the note is “at 7.7 µM”, the double positive events came to 6.9% and the percent response (vesicle binding) turned out to be 272%. For the same compound, the double positive events under setting [1] is 26.1%.

As to `CCN1CC(CN(C)Cc2nc(-c3ccc(OC)c4ccccc34)oc2C)CC1=O` (configuration not stated), under “at 7.7 µM”, the double positive events was 12.9% and the percent response (vesicle binding) is 181%. The same compound showed a double positive events under setting [1] of 19.3%.

Under “at 7.7 µM”, `CC(=O)N/C(=C\c1ccccc1)C(=O)NCc1ccc2c(c1)OCO2` gave a double positive events of 5.9% and a percent response (vesicle binding) of 252%. Under setting [1], this compound gave a double positive events of 19.2%.

In the case of `O=C(CN1C(=O)C(=O)N(Cc2ccccc2)C1=O)c1ccc[nH]1`, where the note is “at 7.7 µM”, the double positive events was determined as 14.5% and the percent response (vesicle binding) turned out to be 422%. Moreover, the double positive events under setting [1] worked out at 15.8%.

For the compound `O=C1Nc2ccccc2C12OCCS2` (configuration not stated), the double positive events is, setting by setting: (at 7.7 µM) 26.8%; under setting [1], 19.4%. For the same compound, under “at 7.7 µM”, the percent response (vesicle binding) was 817%.

`Cc1ccc(-c2cc(=O)[nH][nH]2)c(C)c1`: under “at 7.7 µM”, the double positive events is 11.3% and the percent response (vesicle binding) was 411%. Under setting [1], the double positive events came to 22.1%.

On to `COc1ccc(-c2cc(=O)c3cc(O)ccc3o2)cc1`, for which the double positive events reads like this: (at 7.7 µM) 19.6%; under setting [1], 12.9%. This compound also registered a percent response (vesicle binding) (at 7.7 µM) of 266%.

As for `COc1ccc(S(=O)(=O)N2CCCCCC2)cc1C(=O)NCc1cccs1`, the double positive events runs as follows: (at 7.7 µM) 10.3%; under setting [1], 20.3%. Moreover, the percent response (vesicle binding) (at 7.7 µM) came out at 301%.

As for `CN(C)C(=O)NC(O)C(Cl)Cl` (configuration not stated), the double positive events (at 7.7 µM) was determined as 14.8% and the double positive events under setting [1] was 16.3%. In addition, the percent response (vesicle binding) (at 7.7 µM) was 281%.

Consider `Cn1c(NCc2ccc(Cl)cc2)nc2ccccc21`, for which, where the note is “at 7.7 µM”, the double positive events was 13.5% and the percent response (vesicle binding) was determined as 164%. This compound also returned a double positive events under setting [1] of 16.5%.

Take `O=C(NCC1CCCO1)c1ccc(CS(=O)(=O)c2ccc(Br)cc2)o1` (configuration not stated): the double positive events (at 7.7 µM) is 31.9% and the double positive events under setting [1] came out at 9.7%. Also, the percent response (vesicle binding) (at 7.7 µM) worked out at 163%.

For `O=C(CCS(=O)(=O)c1ccccc1)Nc1nc2c(s1)COc1ccccc1-2`, the double positive events (at 7.7 µM) worked out at 23.1% and the double positive events under setting [1] is 9.3%. In addition, the percent response (vesicle binding) (at 7.7 µM) came out at 310%.

On to `Cc1cc(C)c2c(N)c(C(=O)c3ccc(Cl)cc3)sc2n1`, for which, for the setting “at 7.7 µM”, the double positive events worked out at 25% and the percent response (vesicle binding) stood at 195%. Under setting [1], this compound yielded a double positive events of 31.2%.

Consider `COc1ccc(-c2nnn(CC(=O)N(c3cccc(O)c3)C(C)C(=O)NC3CCCC3)n2)cc1OC` (configuration not stated), for which the double positive events reads like this: (at 7.7 µM) 39.5%; under setting [1], 28.8%. The same compound registered a percent response (vesicle binding) (at 7.7 µM) of 263%.

Turning to `COCc1c(C(=O)Nc2cccc(S(=O)(=O)N3CCCCC3)c2)oc2ccccc12`, the double positive events reads like this: (at 7.7 µM) 14.2%; under setting [1], 15.7%. This compound also came in with a percent response (vesicle binding) (at 7.7 µM) of 222%.

For the compound `Cc1ccc(C2=NS(=O)(=O)N(C)C(C(=O)Nc3cc(C)n(CC(=O)N4CCC(C)CC4)n3)=C2)cc1`, where the note is “at 7.7 µM”, the double positive events came to 21.7% and the percent response (vesicle binding) worked out at 470%. Moreover, the double positive events under setting [1] came to 20.4%.

Regarding `c1cncc(CSc2ccc(-c3ccc4c(c3)OCO4)nn2)c1`, the double positive events is, setting by setting: (at 7.7 µM) 22.1%; under setting [1], 37.6%. Under “at 7.7 µM”, this compound showed a percent response (vesicle binding) of 147%.

`CCOC(=O)/C=C1\SCC(=O)N1CC(=O)NC(C)c1ccc(F)cc1` (configuration not stated): for the setting “at 7.7 µM”, the double positive events came out at 25% and the percent response (vesicle binding) came out at 279%. The compound further displayed a double positive events under setting [1] of 7.1%.

As for `O=C(Nc1cccn(Cc2ccccc2Cl)c1=O)NC1CCCCC1`, under “at 7.7 µM”, the double positive events was determined as 7.6% and the percent response (vesicle binding) is 309%. In addition, under setting [1], the double positive events amounted to 18.1%.

Where the note is “at 7.7 µM”, `CC(C)CNC(=O)COC(=O)c1n[nH]c2ccccc12` showed a double positive events of 12% and a percent response (vesicle binding) of 141%. Also, the double positive events under setting [1] came to 12.5%.

Where the note is “at 7.7 µM”, `O=C(NCc1ccccc1C(F)(F)F)C1CCC(=O)N(CCCc2ccccc2)C1` (configuration not stated) displayed a double positive events of 16.8% and a percent response (vesicle binding) of 406%. Also, the double positive events under setting [1] worked out at 5.6%.

For the setting “at 7.7 µM”, `COc1cccc(C(=O)Nc2ccc(NC(=O)C3CC=CCC3C(=O)O)cc2)c1` (configuration not stated) had a double positive events of 39.7% and a percent response (vesicle binding) of 284%. The compound also gave a double positive events under setting [1] of 10.6%.

Consider `O=C(Cc1ccc(Cl)cc1)Nc1ccccc1N1CCOCC1`, for which the double positive events is 12.5% (at 7.7 µM) and 24% under setting [1]. The same compound showed a percent response (vesicle binding) (at 7.7 µM) of 162%.

For the compound `Cc1ccc(Cl)cc1OCC(=O)NCCOC(=O)Nc1sc(=S)n(C)c1C`, the double positive events reads like this: (at 7.7 µM) 36.7%; under setting [1], 12.3%.

For the compound `O=C1c2ccccc2OCOc2ccccc21`, the double positive events amounted to 31.9% (at 7.7 µM) and 17.5% under setting [1]. The percent response (vesicle binding) (at 7.7 µM) is 310%.
